{"sequences": {"note": "By UniProt entry, the sequences of proteins in these tests, tags left out. Where a name states a change or a piece, a line headed by the entry shows the natural chain unless it says otherwise. Residues count along the entry.", "UniProt P25092, 24-1073": "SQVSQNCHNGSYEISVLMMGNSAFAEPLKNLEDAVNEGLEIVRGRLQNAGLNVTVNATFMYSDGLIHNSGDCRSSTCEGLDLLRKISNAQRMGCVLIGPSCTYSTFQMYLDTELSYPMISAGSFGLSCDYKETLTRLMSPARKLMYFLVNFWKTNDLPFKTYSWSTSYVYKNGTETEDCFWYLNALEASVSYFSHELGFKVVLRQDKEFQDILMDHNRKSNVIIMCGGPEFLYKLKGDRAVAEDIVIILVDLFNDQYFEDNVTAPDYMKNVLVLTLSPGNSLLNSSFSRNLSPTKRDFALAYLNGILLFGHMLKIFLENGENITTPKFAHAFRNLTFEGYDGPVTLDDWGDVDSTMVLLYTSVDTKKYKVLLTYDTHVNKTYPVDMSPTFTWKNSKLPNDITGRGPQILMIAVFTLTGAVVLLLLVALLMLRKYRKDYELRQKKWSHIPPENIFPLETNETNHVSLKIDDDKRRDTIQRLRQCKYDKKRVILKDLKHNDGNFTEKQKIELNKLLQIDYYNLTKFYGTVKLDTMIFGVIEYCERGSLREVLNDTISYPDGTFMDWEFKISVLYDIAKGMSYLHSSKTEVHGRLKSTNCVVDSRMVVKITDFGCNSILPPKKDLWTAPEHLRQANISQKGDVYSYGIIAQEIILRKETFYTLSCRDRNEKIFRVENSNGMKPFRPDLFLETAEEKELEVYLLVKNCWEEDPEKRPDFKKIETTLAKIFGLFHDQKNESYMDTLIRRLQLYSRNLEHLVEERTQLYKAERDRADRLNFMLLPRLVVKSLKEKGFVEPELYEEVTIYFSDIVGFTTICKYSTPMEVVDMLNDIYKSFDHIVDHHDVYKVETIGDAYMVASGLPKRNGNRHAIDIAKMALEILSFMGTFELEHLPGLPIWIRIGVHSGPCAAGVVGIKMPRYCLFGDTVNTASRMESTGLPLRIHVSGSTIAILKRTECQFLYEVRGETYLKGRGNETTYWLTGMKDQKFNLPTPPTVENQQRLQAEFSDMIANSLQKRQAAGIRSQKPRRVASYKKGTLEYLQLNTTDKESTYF", "UniProt Q02747": "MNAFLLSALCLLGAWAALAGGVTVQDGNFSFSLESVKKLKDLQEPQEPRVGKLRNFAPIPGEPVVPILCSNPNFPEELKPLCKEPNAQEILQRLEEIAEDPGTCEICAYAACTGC", "UniProt Q16661": "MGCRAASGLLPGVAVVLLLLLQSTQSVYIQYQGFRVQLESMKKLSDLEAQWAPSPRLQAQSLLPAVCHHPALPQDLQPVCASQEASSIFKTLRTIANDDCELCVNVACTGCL"}, "source": "patent US20100215779A1", "about": "“Compositions and Methods for Treating Disorders Associated with Salt or Fluid Retention” (priority 2007, published 2010)", "origin": "cited, not measured here", "note": "Some of these results come from one statement about several compounds together. Some compounds share one range, which may span the group rather than tell each member.", "data": [{"target": "GC-C receptor (Homo sapiens, UniProt P25092)", "conditions": "GC-C receptor activation in humans; compared with ST peptides", "values": [{"substance": "guanylin (PGTCEICAYAACTGC; Guanylin; UniProt Q02747 101-115, looked up)", "fold less potent than bacterially derived ST peptides": "10-100 fold"}, {"substance": "lymphoguanylin", "fold less potent than bacterially derived ST peptides": "10-100 fold"}, {"substance": "uroguanylin (NDDCELCVNVACTGCL; Uroguanylin; UniProt Q16661 97-112, looked up)", "fold less potent than bacterially derived ST peptides": "10-100 fold"}]}]}
